Laboratory results published in patent US20070225335A1, “Pyrazole Derivatives for Treating Condit Ions Mediated by Activation of the Adeno Sine A2B or A3 Receptor” (priority 2004, published 2007).
The match of structure and compound is tentative.

By UniProt entry, the sequences of proteins in these tests, tags left out.
UniProt P29275, whole entry: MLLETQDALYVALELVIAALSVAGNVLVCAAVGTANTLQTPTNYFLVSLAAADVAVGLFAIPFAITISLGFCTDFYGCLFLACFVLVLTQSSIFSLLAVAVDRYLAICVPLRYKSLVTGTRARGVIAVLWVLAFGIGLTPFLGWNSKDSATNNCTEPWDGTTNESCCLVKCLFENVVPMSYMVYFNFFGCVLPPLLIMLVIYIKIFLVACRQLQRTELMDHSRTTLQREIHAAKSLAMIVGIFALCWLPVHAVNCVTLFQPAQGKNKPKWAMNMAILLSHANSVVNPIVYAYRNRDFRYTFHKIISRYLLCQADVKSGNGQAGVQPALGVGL

Each molecule was assayed against human adenosine A2b receptor (Homo sapiens, UniProt P29275) (assay: Adenosine A2b receptor reporter gene assay (luciferase, CHO-A2b cells, NECA agonist)). Details: read-out: KB values in the reporter gene assay; CHO cells with pCRE-LUCI and human A2b receptor; shift of NECA concentration-response curve; antagonist at 100 nM or 1 μM; KB=[antagonist]/(concentration ratio−1).
Method: Adenosine A2b Receptor Reporter Gene Assay a) Culturing of Chinese Hamster Ovary (CHO) A2b Cell Line
CHO cells transfected with a Luciferase-expressing reporter plasmid (pCRE-LUCI) and with a plasmid carrying the human adenosine A2b receptor structural gene (pA2bRCV) are routinely cultured in Dulbecco's Modified Eagle Medium (DMEM)—supplemented with 10% v/v fetal calf serum (FCS), 2 mM L-glutamine, 0.4 mg/ml L-proline, 1 nM sodium selenite, 0.5 mg/ml Hygromycin B and 1 mg/ml Geneticin—at 37° C., 5% CO2 and 100% humidity. The cells are left to grow to confluence for 4-5 days. The cells obtained are passaged using trypsin/EDTA and split at a ratio of 1 in 5. […]
b) Preparation of cells for assay
Prior to the assay, the CHO-A2b cells are plated onto white 96-well View Plate tissue culture plates (Packard) at a density of 50,000 cells per well in 50 μl of DMEM, and the plates are incubated at 37° C., 5% CO2 and 100% humidity. […]
c) Preparation of Reference and Test Compounds
10 mM solutions of the reference compound, Xanthine Amine Cogener (XAC), and the test compound in dimethyl sulfoxide (DMSO) are prepared. […]
5′-N-ethylcarboxamidoadenosine (NECA), an adenosine A2b agonist, is prepared as a […] solution in DMSO and then diluted to 100 μM with Assay Buffer. […] 100 μl of Steady-Glo, a Luciferase assay substrate from Promega, is added to all wells to lyse the cells and generate luminescence in proportion to the amount of Lucifrease produced. The plates are left for a minimum of 5 minutes before being read on the luminescence program of a Topcount NXT microplate scintillation counter (ex Packard). Concentration—response curves are plotted from the luminescence data using Activitybase software and KB values for the antagonists under test are calculated from the shifts of the curve at a particular concentration (KB=[antagonist]/(concentration ratio−1)

In order of rising Kb:
1. COc1cccc(NC(=O)c2cnn(-c3cccc(F)c3)c2-c2ccncc2)c1  41 nM
2. O=C(Nc1cccc(F)c1)c1cnn(-c2cccc(Cl)c2)c1-c1ccncc1  224 nM
3. O=C(Nc1cccnc1)c1cc(-c2ccncc2)n(-c2cccc(Cl)c2)n1  240 nM
